Test results from PubChem BioAssay AID1498 (National Center for Advancing Translational Sciences (NCATS), 2009).
Inconclusive results, whose numbers are uncertain, are shown with a selection of clear calls. Potencies of inconclusive entries are doubtful fits and often do not repeat. Calls of active or inactive are those of the source. Calls come from the whole dose curve.

experiment: Confirmation Concentration-Response Assay for Modulators of Lamin A Splicing; conditions: HeLa lamin A splicing GFP/RFP minigene, Acumen, 48 h; GFP activity change, negative = decrease: at 46.1 µM (top of the series)
Source text: NCGC Assay Overview: Hutchinson-Gilford Progeria Syndrome (HGPS) is a pediatric premature aging disease caused by a spontaneous mutation in the lamin A/C (LMNA) gene. The mutation activates a cryptic splice site in the LMNA pre-mRNA which results in production of a pre-lamin A protein that cannot be processed properly. The mutant protein accumulates in the nucleus and negatively affects numerous cellular functions. Correction of the splicing defect in HGPS patient cells using a targeted oligonucleotide (exo11) leads to reversal of the cellular disease phenotypes. To identify small molecule modulators of aberrant LMNA splicing, a homogenous assay was constructed in HeLa cells that used a GFP containing minigene to report on correction of aberrant splicing in lamin A and a RFP (DsRed2) to report on cell viability, uniformity and nonspecific effects on the assay signal. This assay was adapted to laser-scanning microplate cytometry (Acumen, TTP Labtech) where miniaturization of the assay to a 1,536-well plate format was possible. Select compounds active in the primary screen (AID 1487) were chosen for confirmation based on potency, efficacy, SAR and activity in other assays in PubChem and at NCGC. References: Bowen, W. P.; Wylie, P. G. Application of Laser-Scanning Fluorescence Microplate Cytometry in High Content Screening. Assay Drug Dev Technol 2006;4:209-221. Scaffidi P, Misteli T. Reversal of the cellular phenotype in the premature aging disease Hutchinson-Gilford progeria syndrome. Nat. Med. 2005;11:440-445.
NCGC Assay Protocol Summary: Reagents/Controls: Stable clones expressing DsRed2 and lamin A-EGFP were generated by Cell and Molecular Technologies in S3 HeLa cells. HeLa cells were prepared for the assay when they were 70-90% confluent. The cells were counted and resuspended in Opti-MEM I (no phenol red; Gibco), 2% FBS, 1% penicillin/ streptomycin (Gibco) at concentration of 120 cells/uL concentration. The suspension was passed through a Falcon basket filter with pore size 40um (Beckton Dickson). Control titrations: column […] 1536-well plate contained a sixteen point titration (1:2 dilutions) in duplicate of ancitabine (Sigma: A8598) beginning at 40 uM final concentration. Column 2 contained a sixteen point titration (1:2 dilutions) of cycloheximide beginning at 1.4 mM final concentration. Column 3 contained ancitabine at 40 uM and column 4 contained was the vehicle control (0.5% DMSO final concentration). Assay Steps: 5 uL of HeLa cells were plated in Aurora LoBase black clear bottom (cyclic-olefin polymer) 1536-well plates at a final density of 600 cells/well. Controls and library compounds were added with a 1536-well pin array using the Kalypsys pin-tool. The plates were then incubated for 48 hrs in a cell-culture incubator (37 °C; 5% CO2, 98% humidity). Following incubation the plates were read on the Acumen Explorer using the 488 nm laser. Data was collected on objects between 10 and 100 um in size. Cell objects were defined by a 15 um width x 10 um depth filter. The ratio of the total object intensity in PMT1 (500-530 nm emission; GFP) over PMT3 (575-640 nm emission; RFP) was calculated for analysis. Keywords: NIH Roadmap, MLSCN, MLI, MLSMR, qHTS, NCGC, lamin A, Progeria, RNA splicing.

Compound | Potency | GFP activity change, negative = decrease
CCOc1ccc(-c2cc(CCCC(=O)NCc3cccnc3)no2)cc1 | inconclusive: 0.0013 µM [cytotoxic] | –
COc1cc(N)c(Cl)cc1C(=O)NC1CCN(Cc2ccccc2)CC1 | – | inconclusive: -19.6%
C/C(N)=C(/C#N)C(=O)COC(=O)c1cc(-c2ccc(Br)cc2)nc2ccccc12 | – | inconclusive: -31.9%
CCOc1ccccc1C(=O)N1CCN(C(c2ccccc2)c2ccccc2)CC1 | – | inconclusive: -22.9%
Cc1cc(C)cc(SCc2noc(C(=O)NC(C)C)c2C(=O)O)c1 | inconclusive: 31.6 µM [inhibitor, partial curve, poor fit] | –
O=c1cc(CSc2nnc(-c3cccs3)n2Cc2ccccc2)nc2sc3ccccc3n12 | – | inconclusive: -33.3%
Cc1cc(/C=N/n2cnnc2)c(C)n1-c1cccc(C(=O)O)c1 | inactive | –
Cc1cccc(NC(=S)NCCC(C)C)c1 | – | inconclusive: -25.9%
Nc1ccc(N2CCN(C(=O)c3ccco3)CC2)cc1 | inconclusive: 8.91 µM [inhibitor, full curve, poor fit] | –
Cc1cc(Nc2ccccc2)nc2cc(O)ccc12 | inactive | –
CC(=O)Nc1ccccc1OCC(=O)c1cc(C)n(Cc2cccs2)c1C | – | inconclusive: -40%
COC1=C(N)C(=O)c2nc(-c3nc(C(=O)O)c(C)c(-c4ccc(OC)c(OC)c4O)c3N)ccc2C1=O | – | inconclusive: -55.1%
COc1ccc(NC(=O)/C(Cl)=C(/Cl)S(=O)(=O)Cc2ccccc2)cn1 | inconclusive: 3.16 µM [cytotoxic, full curve, poor fit] | –
Cc1noc(C)c1-c1ccc2ncnc(NCc3ccc(F)c(F)c3)c2c1 | inconclusive: 0.0004 µM [cytotoxic] | –
COc1cc2c(cc1OC)C(C)N(C(=O)c1cc3ccccc3o1)CC2 (configuration not stated) | – | inconclusive: -37.4%
COc1ccc2cc3[n+](cc2c1OC)CCc1cc2c(cc1-3)OCO2 | – | inconclusive: -5.23%

Filtered by structure: the compounds so far with a thiophene ring, fused or not
Compound | Potency | GFP activity change, negative = decrease
O=c1cc(CSc2nnc(-c3cccs3)n2Cc2ccccc2)nc2sc3ccccc3n12 | – | inconclusive: -33.3%
CC(=O)Nc1ccccc1OCC(=O)c1cc(C)n(Cc2cccs2)c1C | – | inconclusive: -40%

(further entries)

Compound | Potency | GFP activity change, negative = decrease
CC(=O)c1c(C)[nH]c(C(=O)Nc2c(C)n(C)n(-c3ccccc3)c2=O)c1C | inactive | –
Cc1noc(C)c1-c1ccc2ncnc(NCc3cccc(-c4ccccc4)c3)c2c1 | inactive | –
COc1ccc(C=C(c2nc3ccccc3s2)c2nc3ccccc3s2)cc1O | inactive | –
CC1CCC(NC(=O)c2ccc(/C=C3\Oc4ccccc4N(C)C3=O)cc2)CC1 (configuration not stated) | inconclusive: 7.94 µM [cytotoxic, full curve, poor fit] | –
CC[C@H]1CN2CCc3cc(OC)c(OC)cc3[C@@H]2C[C@@H]1C[C@H]1NCCc2cc(OC)c(OC)cc21 | – | inconclusive: -97.5%
CCC(=Nc1ccc(Cc2ccncc2)cc1)c1c(O)n(C)c(=O)n(C)c1=O | – | inconclusive: -35%
Cc1[nH]n(-c2nc(-c3cccc([N+](=O)[O-])c3)cs2)c(=O)c1C | – | inconclusive: -30%
Cc1nc2ccc(NC(=O)c3ccc(Cl)c(S(=O)(=O)N(C)c4ccccc4)c3)cc2s1 | inactive | –
Cn1c(Sc2ccccc2Cl)c(C=O)c2ccccc21 | inactive | –
COc1ccc(CNC(=O)CSc2ccc(Br)cc2)cc1OC | – | inconclusive: -20.9%
Cc1noc(C)c1-c1ccc2ncnc(NCc3ccccc3F)c2c1 | – | inconclusive: -21.9%
CC(C)(C)n1nnnc1C(c1ccc2ncccc2c1)N1CCSCC1 (configuration not stated) | inactive | –
CC1=CC(=O)c2ccccc2C1=O | inconclusive: 35.5 µM [cytotoxic, partial curve, poor fit] | –
C/C(=N\NC(=O)C(c1ccncc1)N1CCOCC1)c1ccc(Br)cc1 (configuration not stated) | inactive | –
O=C(CCCN1CC=C(n2c(=O)[nH]c3ccccc32)CC1)c1ccc(F)cc1 | inactive | –
CCOC(=O)Nc1ccc2c(c1)N(C(=O)CCN1CCOCC1)c1ccccc1S2 | – | inconclusive: -39.9%
